We go through 1 substance from patent US12448414B2 (Anhui Agricultural University, priority 2023, dated 2025).

No end group written: not given here.

A short description of the data set: general procedure: Fmoc solid-phase peptide synthesis; Rink resin; DIC. To be noted: whole synthesis, HPLC.

Turning to WWKLLRKL-NH2, the “purity (crude or final not stated)” value is, setting by setting: (run 1) 96.40%; (run 2) “greater than 95%”.
